# Primary screen of a compound library

Amino acid sequences for entries named in this document (tags omitted). Residues count along the entry.
UniProt Q4DA54, 1-478: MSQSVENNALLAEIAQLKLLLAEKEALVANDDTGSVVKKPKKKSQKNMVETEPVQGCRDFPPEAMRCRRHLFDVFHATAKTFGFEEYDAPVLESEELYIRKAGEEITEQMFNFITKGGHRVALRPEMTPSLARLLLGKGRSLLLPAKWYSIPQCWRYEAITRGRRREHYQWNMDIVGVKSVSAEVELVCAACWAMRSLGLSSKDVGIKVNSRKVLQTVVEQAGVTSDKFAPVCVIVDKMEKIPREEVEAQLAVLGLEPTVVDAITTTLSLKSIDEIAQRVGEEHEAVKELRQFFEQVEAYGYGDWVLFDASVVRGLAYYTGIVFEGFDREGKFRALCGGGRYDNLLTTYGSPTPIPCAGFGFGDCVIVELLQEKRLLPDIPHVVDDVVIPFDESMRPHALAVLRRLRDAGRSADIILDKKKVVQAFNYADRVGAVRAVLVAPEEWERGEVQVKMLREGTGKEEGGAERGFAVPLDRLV
UniProt P9WFT3, whole entry: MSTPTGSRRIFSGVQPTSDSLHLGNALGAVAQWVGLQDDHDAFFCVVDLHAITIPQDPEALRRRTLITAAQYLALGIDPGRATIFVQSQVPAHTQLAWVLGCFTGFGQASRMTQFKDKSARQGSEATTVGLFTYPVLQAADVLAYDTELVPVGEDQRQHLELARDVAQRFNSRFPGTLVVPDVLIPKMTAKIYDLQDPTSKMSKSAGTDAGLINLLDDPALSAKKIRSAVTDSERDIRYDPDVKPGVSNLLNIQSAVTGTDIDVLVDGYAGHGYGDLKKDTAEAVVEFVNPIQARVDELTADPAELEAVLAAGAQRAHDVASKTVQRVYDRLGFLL
UniProt I6X8D2, whole entry: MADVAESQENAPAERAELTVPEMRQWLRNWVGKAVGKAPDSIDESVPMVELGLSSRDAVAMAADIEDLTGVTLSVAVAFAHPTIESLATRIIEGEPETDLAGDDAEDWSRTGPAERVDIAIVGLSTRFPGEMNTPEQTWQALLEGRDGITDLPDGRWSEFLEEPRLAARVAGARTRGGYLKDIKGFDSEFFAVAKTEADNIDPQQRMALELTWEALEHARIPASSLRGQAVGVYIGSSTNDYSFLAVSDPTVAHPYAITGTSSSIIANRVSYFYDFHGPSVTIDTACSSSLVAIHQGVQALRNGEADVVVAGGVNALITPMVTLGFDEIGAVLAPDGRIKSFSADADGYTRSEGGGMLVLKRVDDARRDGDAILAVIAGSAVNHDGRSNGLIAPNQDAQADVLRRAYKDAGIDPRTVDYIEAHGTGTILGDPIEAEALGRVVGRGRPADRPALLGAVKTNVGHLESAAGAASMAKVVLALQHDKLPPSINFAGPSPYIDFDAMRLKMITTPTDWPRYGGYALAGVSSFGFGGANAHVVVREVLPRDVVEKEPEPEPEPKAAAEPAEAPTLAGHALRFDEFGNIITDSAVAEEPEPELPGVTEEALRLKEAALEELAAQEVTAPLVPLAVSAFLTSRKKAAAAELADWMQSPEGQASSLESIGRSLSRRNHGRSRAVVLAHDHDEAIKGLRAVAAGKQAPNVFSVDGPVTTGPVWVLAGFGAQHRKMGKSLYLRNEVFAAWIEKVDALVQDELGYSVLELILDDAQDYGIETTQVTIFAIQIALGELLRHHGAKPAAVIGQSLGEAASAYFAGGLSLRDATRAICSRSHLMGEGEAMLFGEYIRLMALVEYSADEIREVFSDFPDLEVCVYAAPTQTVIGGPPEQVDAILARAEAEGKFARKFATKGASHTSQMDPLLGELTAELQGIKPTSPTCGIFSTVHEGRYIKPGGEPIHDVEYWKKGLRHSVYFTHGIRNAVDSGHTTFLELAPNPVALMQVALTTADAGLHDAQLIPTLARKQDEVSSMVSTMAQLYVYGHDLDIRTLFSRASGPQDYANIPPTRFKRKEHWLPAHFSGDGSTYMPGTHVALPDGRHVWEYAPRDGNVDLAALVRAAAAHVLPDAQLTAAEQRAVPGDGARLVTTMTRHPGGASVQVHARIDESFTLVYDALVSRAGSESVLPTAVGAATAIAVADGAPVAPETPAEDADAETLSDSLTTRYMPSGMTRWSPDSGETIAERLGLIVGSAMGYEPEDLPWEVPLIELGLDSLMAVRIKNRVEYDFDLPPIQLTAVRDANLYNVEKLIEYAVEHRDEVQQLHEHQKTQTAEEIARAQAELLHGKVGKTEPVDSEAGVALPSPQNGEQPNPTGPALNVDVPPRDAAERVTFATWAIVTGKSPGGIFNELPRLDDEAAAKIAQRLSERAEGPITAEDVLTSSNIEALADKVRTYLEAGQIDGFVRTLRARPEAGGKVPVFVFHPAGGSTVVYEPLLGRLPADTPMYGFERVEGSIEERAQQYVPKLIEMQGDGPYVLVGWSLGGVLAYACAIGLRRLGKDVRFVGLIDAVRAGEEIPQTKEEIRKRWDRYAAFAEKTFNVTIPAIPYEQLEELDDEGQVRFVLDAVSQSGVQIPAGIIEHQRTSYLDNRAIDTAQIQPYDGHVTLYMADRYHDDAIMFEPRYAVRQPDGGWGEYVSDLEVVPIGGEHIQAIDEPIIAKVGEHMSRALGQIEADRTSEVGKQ
UniProt Q8IDJ8, 1-583: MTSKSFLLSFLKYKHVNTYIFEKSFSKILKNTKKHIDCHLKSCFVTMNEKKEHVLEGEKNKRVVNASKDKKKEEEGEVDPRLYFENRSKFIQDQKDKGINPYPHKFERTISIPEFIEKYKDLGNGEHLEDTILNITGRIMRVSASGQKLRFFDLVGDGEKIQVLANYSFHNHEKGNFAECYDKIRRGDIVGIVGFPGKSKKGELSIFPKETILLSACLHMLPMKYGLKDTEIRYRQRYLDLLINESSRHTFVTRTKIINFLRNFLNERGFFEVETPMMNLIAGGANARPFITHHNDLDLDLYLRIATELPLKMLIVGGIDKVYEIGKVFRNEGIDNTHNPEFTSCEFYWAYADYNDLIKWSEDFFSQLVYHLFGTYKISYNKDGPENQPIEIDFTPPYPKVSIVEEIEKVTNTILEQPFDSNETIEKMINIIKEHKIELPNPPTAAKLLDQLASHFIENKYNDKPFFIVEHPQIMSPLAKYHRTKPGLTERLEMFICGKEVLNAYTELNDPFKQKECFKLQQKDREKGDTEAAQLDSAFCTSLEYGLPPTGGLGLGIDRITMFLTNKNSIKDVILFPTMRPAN

Source: ChEMBL document CHEMBL3988442, “University of Dundee, Small-Polar-MMV Screening Library” (2021).

A: 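Enzyme assay of histidyl-tRNA synthetase; the read-out is not stated. Target: Histidine-tRNA ligase, Trypanosoma cruzi CL Brener (UniProt Q4DA54). Compounds at 30 µM. Direction is inferred from retests: higher values go with stronger inhibition. Size under these conditions: about 69,000 compounds, about 31 of them at 50% or above in at least one test.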
B: 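Tryptophan-tRNA ligase, Mycobacterium tuberculosis (UniProt P9WFT3). Enzyme assay of tryptophanyl-tRNA synthetase; the read-out is not stated. Compounds at 10 µM. Higher most likely means stronger inhibition; the record gives no direction and few retests gave an IC50. Size under these conditions: about 65,000 compounds, about 64 of them at 50% or above in at least one test.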
C: 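Polyketide synthase Pks13, Mycobacterium tuberculosis (UniProt I6X8D2). Enzyme assay of the thioesterase domain of polyketide synthase 13; the read-out is not stated. Tested at 30 µM. The record gives no direction; the compounds picked for IC50 retests had high values, so higher reads as stronger inhibition. Size under these conditions: about 67,000 compounds, about 300 of them at 50% or above in at least one test.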
D: 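Enzyme assay of the cytosolic lysyl-tRNA synthetase in 384-well plates, read by luminescence. Target: Lysine-tRNA ligase, Plasmodium falciparum 3D7 (UniProt Q8IDJ8). Tested at 30 µM. Direction is inferred from only a few compounds that gave an IC50; most scored high, so higher reads as stronger inhibition. About 69,000 compounds were tested under these conditions; 0.071% (about 49) showed 50% or more at least once.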
E: 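Assay of Toxoplasma gondii numbers, read through their beta-galactosidase reporter with a colour substrate. Concentration: 10 µM. The record gives no direction; the compounds picked for IC50 retests had high values, so higher reads as fewer parasites. About 67,000 compounds were tested under these conditions; 0.38% (about 260) showed 50% or more at least once.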

Values are the deposited “Percent Effect”, in %. The record does not define 0% and 100%; most values in the screen are far below 50% and negative numbers occur (in some assays of this library far below -100). Compounds were drawn at random from those tested, without regard to their results.

{"smiles": "O=C(NCc1ccccn1)Nc1ccc2[nH]nnc2c1", "A": 5.882, "B": 0.9166, "C": -45.61, "D": 5.666, "E": -2.841}
{"smiles": "CN(C)CCOC1CC2(CCN(c3cnccn3)CC2)c2ccccc21", "stereo": "stereo unspecified", "A": 36.81, "B": 2.035, "C": 19.79, "D": -20.14}
{"smiles": "CN(C)C(=O)CC1CC2(CCN(CC3CC3)CC2)Oc2ccccc21", "stereo": "stereo unspecified", "A": 6.796, "B": -1.599, "C": -27.94, "D": 5.633}
{"smiles": "Cc1cnc(NC2CCc3c(ccc(=O)n3CC3CC3)C2)nc1", "stereo": "stereo unspecified", "A": 0.6452, "B": -2.364, "C": -6.608, "D": 4.742, "E": 4.132}
{"smiles": "CC(O)(CNC(=O)c1cccnc1-n1cccn1)c1cccs1", "stereo": "stereo unspecified", "A": 2.97, "B": -1.152, "C": -2.181, "D": -0.874, "E": -5.209}
{"smiles": "CN(C)c1ncccc1CNCc1cccc(O)c1", "A": 10.89, "B": 2.572, "C": 5.69, "D": 10.71}
{"smiles": "CNC(=O)c1sc2ccccc2c1C1CCN(c2cc(C)nc(C)n2)C1", "stereo": "stereo unspecified", "A": 3.876, "B": 3.039, "C": -28.19, "D": -1.173, "E": -23.45}
{"smiles": "CCCc1nnc(NCCc2noc(C3CC3)n2)o1", "A": 1.98, "B": 0.4531, "C": -5.56, "D": -6.132, "E": -7.129}
{"smiles": "CN1CCN(C[C@@H]2CN(Cc3c(Cl)cncc3Cl)C[C@@H]2CO)CC1", "A": 2.174, "B": -6.372, "C": -4.104, "D": 5.067, "E": 0.3067}
{"smiles": "CCN(CC)S(=O)(=O)c1cc2c3c(c1)c(C)cc(=O)n3CC2", "A": 3.03, "B": -3.455, "C": 2.745, "D": -0.3842, "E": -2.001}
{"smiles": "O=C(c1cn2ccsc2n1)N1CCN(CC2CC2)[C@@H]2CS(=O)(=O)C[C@@H]21", "A": -9.231, "B": 7.57, "C": -4.839, "D": 6.883}
{"smiles": "O=C(O)C(F)(F)F.[H][C@@]12CCN(Cc3cccc(C)c3)C[C@]1(C(=O)NC)CCO2", "E": -2.277}
{"smiles": "Cc1cc(=O)[nH]c(-c2cccc(CN3CCCN4CCCC4C3)c2)n1", "stereo": "stereo unspecified", "A": 13.58, "B": 2.436, "C": -6.377, "D": -0.2504, "E": 0.5956}
{"smiles": "CCc1n[nH]c(C2CN(CC(=O)NCCc3ccsc3)CCO2)n1", "stereo": "stereo unspecified", "A": 0.8264, "B": 4.348, "C": -35.59, "D": 1.148, "E": 3.831}
{"smiles": "CN(c1cccnc1N1CCCC1)S(=O)(=O)c1cccs1", "A": 3.175, "B": 14.56, "C": -37.99, "D": 1.433, "E": -5.844}
{"smiles": "c1csc(CN2CCc3c(CNc4nncs4)cncc3C2)c1", "A": -1.97, "B": -3.704, "C": -10.55, "D": -0.3019}

2 of the entries, repeated:

SMILES,A,B,C,D,E
CNC(=O)c1sc2ccccc2c1C1CCN(c2cc(C)nc(C)n2)C1 (stereo unspecified),3.876%,3.039%,-28.19%,-1.173%,-23.45%
CCCc1nnc(NCCc2noc(C3CC3)n2)o1,1.98%,0.4531%,-5.56%,-6.132%,-7.129%